Common to all, as to experiment: co-IP; GFP-Trap anti-GFP beads precipitate the GFP-tagged protein (GFP-MKLP1, GFP-Anillin or GFP-MP-GAP) from lysates of transfected cells (293T, 2 μg GFP-MKLP1 and 6 μg p120 construct); p120 detected by western blot
(In general: In western blotting, separated proteins are transferred to a membrane and probed.)

Assay [1] addresses T1, GFP-tagged MKLP1 (in pEGFP-C1) (UniProt Q02241).
T1 sequence: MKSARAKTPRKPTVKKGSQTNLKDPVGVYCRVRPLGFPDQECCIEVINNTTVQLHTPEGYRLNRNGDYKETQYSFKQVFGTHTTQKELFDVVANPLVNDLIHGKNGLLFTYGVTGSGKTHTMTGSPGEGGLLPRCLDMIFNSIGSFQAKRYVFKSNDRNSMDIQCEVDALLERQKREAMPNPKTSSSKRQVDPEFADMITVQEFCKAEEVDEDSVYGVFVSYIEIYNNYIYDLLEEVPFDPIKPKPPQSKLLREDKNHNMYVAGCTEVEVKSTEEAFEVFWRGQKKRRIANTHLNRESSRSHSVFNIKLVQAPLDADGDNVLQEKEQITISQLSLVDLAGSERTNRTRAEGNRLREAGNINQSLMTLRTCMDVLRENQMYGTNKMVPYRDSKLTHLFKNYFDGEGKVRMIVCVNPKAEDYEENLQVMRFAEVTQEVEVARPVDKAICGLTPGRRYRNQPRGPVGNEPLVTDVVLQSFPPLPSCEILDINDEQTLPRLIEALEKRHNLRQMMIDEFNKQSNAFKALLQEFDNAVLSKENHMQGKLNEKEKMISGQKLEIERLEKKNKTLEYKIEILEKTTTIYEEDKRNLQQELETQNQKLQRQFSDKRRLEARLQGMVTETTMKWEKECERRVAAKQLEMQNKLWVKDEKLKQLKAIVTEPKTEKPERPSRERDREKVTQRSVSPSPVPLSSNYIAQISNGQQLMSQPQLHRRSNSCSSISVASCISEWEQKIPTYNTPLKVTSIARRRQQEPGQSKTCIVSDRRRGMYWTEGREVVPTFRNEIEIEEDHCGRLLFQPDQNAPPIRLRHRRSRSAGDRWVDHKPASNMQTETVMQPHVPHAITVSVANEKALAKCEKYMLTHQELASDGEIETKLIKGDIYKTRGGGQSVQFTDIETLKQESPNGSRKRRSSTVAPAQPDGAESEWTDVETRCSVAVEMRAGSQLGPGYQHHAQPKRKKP

The target of assay [2] is T2, GFP-tagged MP-GAP (ARHGAP11A) (human) (UniProt Q6P4F7).
T2 sequence: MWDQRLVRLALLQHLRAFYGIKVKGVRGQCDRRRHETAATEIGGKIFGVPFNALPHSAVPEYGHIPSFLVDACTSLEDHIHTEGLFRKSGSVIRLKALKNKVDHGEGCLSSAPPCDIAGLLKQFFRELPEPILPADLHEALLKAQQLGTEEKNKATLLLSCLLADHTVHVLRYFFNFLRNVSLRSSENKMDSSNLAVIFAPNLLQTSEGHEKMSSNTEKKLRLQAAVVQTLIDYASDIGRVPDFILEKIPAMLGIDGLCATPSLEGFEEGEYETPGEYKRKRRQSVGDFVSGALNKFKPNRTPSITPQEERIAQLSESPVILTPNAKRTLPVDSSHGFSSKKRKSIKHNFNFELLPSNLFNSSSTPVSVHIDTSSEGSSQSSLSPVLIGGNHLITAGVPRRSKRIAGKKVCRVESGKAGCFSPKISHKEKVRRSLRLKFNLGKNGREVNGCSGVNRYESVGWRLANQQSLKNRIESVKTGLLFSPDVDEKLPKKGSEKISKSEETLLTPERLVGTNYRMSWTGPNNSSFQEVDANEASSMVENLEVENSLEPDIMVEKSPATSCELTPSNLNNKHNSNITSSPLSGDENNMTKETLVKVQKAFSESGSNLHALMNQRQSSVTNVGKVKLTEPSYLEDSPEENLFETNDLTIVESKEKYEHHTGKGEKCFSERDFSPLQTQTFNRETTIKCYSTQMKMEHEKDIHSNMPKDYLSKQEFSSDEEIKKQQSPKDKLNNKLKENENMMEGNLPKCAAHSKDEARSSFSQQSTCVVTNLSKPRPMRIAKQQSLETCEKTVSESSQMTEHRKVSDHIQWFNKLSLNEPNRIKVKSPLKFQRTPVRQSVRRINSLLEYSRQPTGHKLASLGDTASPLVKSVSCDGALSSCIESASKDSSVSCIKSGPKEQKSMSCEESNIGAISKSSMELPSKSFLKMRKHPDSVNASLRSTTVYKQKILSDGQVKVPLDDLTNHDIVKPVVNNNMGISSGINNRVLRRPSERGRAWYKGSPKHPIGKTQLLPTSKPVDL

Assay [3] addresses T3, GFP-tagged Anillin (pEGFP-Anillin) (UniProt Q9NQW6).
T3 sequence: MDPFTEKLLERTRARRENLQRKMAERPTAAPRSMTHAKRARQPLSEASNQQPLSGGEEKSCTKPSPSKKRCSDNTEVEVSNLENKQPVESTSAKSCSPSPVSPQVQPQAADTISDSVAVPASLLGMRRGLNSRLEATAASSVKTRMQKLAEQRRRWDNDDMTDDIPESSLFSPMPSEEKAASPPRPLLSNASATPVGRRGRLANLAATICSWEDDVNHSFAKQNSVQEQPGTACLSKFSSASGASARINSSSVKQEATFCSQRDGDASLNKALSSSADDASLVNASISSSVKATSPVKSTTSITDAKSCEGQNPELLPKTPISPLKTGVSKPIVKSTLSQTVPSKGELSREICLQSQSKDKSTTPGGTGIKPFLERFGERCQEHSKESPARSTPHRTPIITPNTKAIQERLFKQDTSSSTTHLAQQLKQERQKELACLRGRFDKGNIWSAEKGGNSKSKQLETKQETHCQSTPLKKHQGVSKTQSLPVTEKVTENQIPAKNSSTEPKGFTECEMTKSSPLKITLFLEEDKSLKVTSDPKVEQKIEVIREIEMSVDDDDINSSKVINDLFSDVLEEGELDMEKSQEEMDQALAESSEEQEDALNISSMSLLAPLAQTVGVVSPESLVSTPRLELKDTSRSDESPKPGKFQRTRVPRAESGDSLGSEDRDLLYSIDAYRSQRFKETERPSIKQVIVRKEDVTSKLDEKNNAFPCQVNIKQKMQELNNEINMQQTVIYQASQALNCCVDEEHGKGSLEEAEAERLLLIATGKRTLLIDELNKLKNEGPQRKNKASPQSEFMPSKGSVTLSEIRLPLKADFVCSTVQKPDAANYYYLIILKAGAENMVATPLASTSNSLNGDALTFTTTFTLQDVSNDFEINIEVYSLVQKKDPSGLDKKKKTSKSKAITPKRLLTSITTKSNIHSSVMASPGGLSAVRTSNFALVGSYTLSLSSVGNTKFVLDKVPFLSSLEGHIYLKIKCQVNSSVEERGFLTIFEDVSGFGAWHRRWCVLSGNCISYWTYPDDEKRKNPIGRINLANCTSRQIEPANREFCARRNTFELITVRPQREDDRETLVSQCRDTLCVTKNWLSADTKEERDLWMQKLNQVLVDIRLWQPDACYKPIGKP

These are yes or no findings as the source states them, for the method shown. Binding seen in cells or lysates may run through a third protein. A result given as binding can be weak or reduced; the word gives no strength. Tags and fused reporters may be left off the sequences shown.

Consider “p120ΔARM, truncation mutant lacking all ARM domains (RC-CMV-p120 ΔARM(1–10)) (domain or fragment)”, for which, in assay [1], the binding entry is listed as “binds”.

For “p120-catenin isoform 1A (RC-CMV-p120-1A)”, the binding result in assay [1], in assay [2] and in assay [3] was “binds” in each case. Take “p120-catenin isoform 4A (RC-CMV-p120-4A)”: in assay [1], the binding entry is listed as “no binding”. On the same count and under the same terms, with “p120-catenin isoform 3A (RC-CMV-p120-3A)” the entry was “no binding”.

The values are drawn from paper PMC5192218.
